{"source": "PubChem BioAssay AID1259254 | NCATS, 2017", "aim": "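Genome-wide screen for genes that prevent DNA re-replication in cancer cells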 (primary screen)", "system": "human HCT116 colorectal cancer cells", "reagent": "single siRNA against human genes", "timing": "3 days", "measurement": "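Nuclei stained with Hoechst and imaged; cell-cycle phase assigned by DNA content; G2 share scaled per plate, non-targeting siRNA 0%, GMNN siRNA 100%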", "reading the numbers": "G2 robust z-score: higher = more G2 cells, more excess DNA replication", "active means": "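Active siRNAs have a G2 robust z of 5 or more median absolute deviations over the median, which in these data means about 38% or higher of GMNN control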", "note": "The deposit covers about 59,000 reagents; below is a part drawn at random. Of all reagents, about 1,550 (2.6%) are marked active. 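G2 share is only a proxy for re-replication; each gene was hit by three separate siRNAs, and active genes were retested.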 A number with no mark means an inactive call. The numbers tell different reagents against one gene apart. Not all columns of the deposit are shown. Not given: the amount of reagent."}
{"gene":"BTN3A2 (butyrophilin subfamily 3 member A2)","reagent":1,"G2 robust z-score":-0.242}
{"gene":"BTN3A2 (butyrophilin subfamily 3 member A2)","reagent":2,"G2 robust z-score":-1.02}
{"gene":"BTN3A2 (butyrophilin subfamily 3 member A2)","reagent":3,"G2 robust z-score":-0.105}
{"gene":"ARHGAP27 (Rho GTPase activating protein 27)","reagent":1,"G2 robust z-score":0.224}
{"gene":"ARHGAP27 (Rho GTPase activating protein 27)","reagent":2,"G2 robust z-score":1.7}
{"gene":"ARHGAP27 (Rho GTPase activating protein 27)","reagent":3,"G2 robust z-score":0.0793}
{"gene":"ARHGAP27 (Rho GTPase activating protein 27)","reagent":4,"G2 robust z-score":0.239}
{"gene":"ARHGAP27 (Rho GTPase activating protein 27)","reagent":5,"G2 robust z-score":-0.528}
{"gene":"ARHGAP27 (Rho GTPase activating protein 27)","reagent":6,"G2 robust z-score":0.0402}
{"gene":"SELENBP1 (selenium binding protein 1)","reagent":1,"G2 robust z-score":-0.95}
{"gene":"SELENBP1 (selenium binding protein 1)","reagent":2,"G2 robust z-score":-0.191}
{"gene":"SELENBP1 (selenium binding protein 1)","reagent":3,"G2 robust z-score":-0.61}
